# Reference: patent publication US7884136B2, “Modified-release formulations of a bupropion salt” (Biovail Laboratories International S.R.L., priority 2005, dated 2011)
# Legend:
# [1] = Accelerated stability study of bupropion HBr, closed bottles, 40° C./75% RH, 3 and 6 months, HPLC; type: physicochemical; settings: 40° C./R.H. 75%
# Method: The samples were prepared in closed bottles and placed in the stability chamber. HPLC analysis was conducted on the samples prior to placing them in the stability chamber (time 0), and after 3 months and 6 months. The amounts of the main degradation products present at time 0 were compared with those amounts present after 3 months and 6 months. […] For each sample tested, at each time period, two different HPLC assays were run. The first assay labelled chromatographic purity A, measured the percentage of three impurities 3′chloropropiophenone, 3′-Chloro-2-bromopropiophenone and 3′-Chlorobenzoic acid. The second assay, labelled chromatographic purity B, measured the percentage of 2-N-(tert-Butyl)-aminopropiophenone, a single unknown impurity and the total unknown impurities.
# [2] = Shelf life stability program of bupropion HBr, 25° C./60% RH, 3 and 6 months, HPLC; type: physicochemical; settings: 12 months
# Method: The stability of bupropion HBr was studied over a longer term under conditions meant to approximate standard storage or shelf conditions. Samples were prepared in closed containers and subjected to long-term storage at 25° C.+2° C. and 60%+5% RH in a stability chamber. The samples were analyzed by HPLC prior to being placed in the stability chamber (time 0) and after 3 months and 6 months. The amounts of the main degradation products present at time 0 were compared with the amounts present at 3 months and 6 months. As shown in Table 77-79 three different batches of bupropion HBr were tested. As in Example 10 each sample was tested under two HPLC assay conditions to identify 6 impurities or groups of impurities as described in Example 10.
SMILES,"Identification (IR, HPLC) ([1]; 3 month)","Identification (IR, HPLC) ([1]; 6 months)","Identification (IR, HPLC) ([1]; time 0)",Microbial cont. moulds and yeast ([2]; 25° C./RH 60%) [ufc/g],Microbial cont. total microbial count ([2]; 25° C./RH 60%) [ufc/g],other results
Br.CC(NC(C)(C)C)C(=O)c1cccc(Cl)c1 (stereo not drawn) [Bupropion.HBr D00894],positive,positive,positive,,,
Br.CC(NC(C)(C)C)C(=O)c1cccc(Cl)c1 (stereo not drawn) [Bupropion.HBr D00895],positive,positive,positive,,,
Br.CC(NC(C)(C)C)C(=O)c1cccc(Cl)c1 (stereo not drawn) [Bupropion.HBr D00896],positive,positive,positive,,,
Br.CC(NC(C)(C)C)C(=O)c1cccc(Cl)c1 (stereo not drawn) [Bupropion•HBr D00894],,,,<100,<100,
Br.CC(NC(C)(C)C)C(=O)c1cccc(Cl)c1 (stereo not drawn) [Bupropion•HBr D00895],,,,<100,<100,
Br.CC(NC(C)(C)C)C(=O)c1cccc(Cl)c1 (stereo not drawn) [Bupropion•HBr D00896],,,,<100,<100,
Br.CC(NC(C)(C)C)C(=O)c1cccc(Cl)c1 (stereo not drawn) [Bupropion•HBr],,,,,,"Microbial cont. moulds and yeast ([2]; Batch D00894, 25° C., R.H. 60%): <100 ufc/g; Microbial cont. total microbial count ([2]; Batch D00894, 25° C., R.H. 60%): <100 ufc/g; Microbial cont. moulds and yeast ([2]; Batch D00895, 25° C., R.H. 60%): <100 ufc/g; Microbial cont. total microbial count ([2]; Batch D00895, 25° C., R.H. 60%): <100 ufc/g; Microbial cont. moulds and yeast ([2]; Batch D00896, 25° C., R.H. 60%): <100 ufc/g; Microbial cont. total microbial count ([2]; Batch D00896, 25° C., R.H. 60%): <100 ufc/g"
